Assay results taken from PMC4468146.
These are yes or no findings as the source states them, for the method shown. In cells and extracts the contact can be indirect. These calls come from enrichment with a bait or labelling near it, and not all partners need be listed.

Amino acid sequences for entries named in this document (tags omitted). Residues count along the entry.
UniProt P47871, residues 26-477: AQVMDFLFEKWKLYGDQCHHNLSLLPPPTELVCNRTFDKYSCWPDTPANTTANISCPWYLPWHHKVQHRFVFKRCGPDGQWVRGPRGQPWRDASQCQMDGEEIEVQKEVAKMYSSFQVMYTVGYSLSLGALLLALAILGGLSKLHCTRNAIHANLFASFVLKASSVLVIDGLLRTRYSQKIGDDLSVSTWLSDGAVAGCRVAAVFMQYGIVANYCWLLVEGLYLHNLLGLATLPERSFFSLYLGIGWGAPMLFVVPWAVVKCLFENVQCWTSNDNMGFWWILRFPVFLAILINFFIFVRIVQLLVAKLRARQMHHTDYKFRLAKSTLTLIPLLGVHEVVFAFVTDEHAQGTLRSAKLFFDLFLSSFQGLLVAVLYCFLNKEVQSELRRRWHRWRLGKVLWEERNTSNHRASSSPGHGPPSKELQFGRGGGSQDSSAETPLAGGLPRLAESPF
UniProt A0A8C2LCH3: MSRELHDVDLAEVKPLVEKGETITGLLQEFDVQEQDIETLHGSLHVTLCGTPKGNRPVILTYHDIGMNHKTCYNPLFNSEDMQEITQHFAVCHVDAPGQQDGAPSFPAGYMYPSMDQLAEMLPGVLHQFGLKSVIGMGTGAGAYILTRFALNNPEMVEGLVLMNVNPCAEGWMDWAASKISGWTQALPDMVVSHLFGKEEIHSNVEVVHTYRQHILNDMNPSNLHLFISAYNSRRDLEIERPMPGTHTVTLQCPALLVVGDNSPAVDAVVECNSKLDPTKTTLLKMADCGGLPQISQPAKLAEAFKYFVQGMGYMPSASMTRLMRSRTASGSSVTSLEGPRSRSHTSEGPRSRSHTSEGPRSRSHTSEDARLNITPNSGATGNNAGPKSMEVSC
UniProt A0A8C2LKN4: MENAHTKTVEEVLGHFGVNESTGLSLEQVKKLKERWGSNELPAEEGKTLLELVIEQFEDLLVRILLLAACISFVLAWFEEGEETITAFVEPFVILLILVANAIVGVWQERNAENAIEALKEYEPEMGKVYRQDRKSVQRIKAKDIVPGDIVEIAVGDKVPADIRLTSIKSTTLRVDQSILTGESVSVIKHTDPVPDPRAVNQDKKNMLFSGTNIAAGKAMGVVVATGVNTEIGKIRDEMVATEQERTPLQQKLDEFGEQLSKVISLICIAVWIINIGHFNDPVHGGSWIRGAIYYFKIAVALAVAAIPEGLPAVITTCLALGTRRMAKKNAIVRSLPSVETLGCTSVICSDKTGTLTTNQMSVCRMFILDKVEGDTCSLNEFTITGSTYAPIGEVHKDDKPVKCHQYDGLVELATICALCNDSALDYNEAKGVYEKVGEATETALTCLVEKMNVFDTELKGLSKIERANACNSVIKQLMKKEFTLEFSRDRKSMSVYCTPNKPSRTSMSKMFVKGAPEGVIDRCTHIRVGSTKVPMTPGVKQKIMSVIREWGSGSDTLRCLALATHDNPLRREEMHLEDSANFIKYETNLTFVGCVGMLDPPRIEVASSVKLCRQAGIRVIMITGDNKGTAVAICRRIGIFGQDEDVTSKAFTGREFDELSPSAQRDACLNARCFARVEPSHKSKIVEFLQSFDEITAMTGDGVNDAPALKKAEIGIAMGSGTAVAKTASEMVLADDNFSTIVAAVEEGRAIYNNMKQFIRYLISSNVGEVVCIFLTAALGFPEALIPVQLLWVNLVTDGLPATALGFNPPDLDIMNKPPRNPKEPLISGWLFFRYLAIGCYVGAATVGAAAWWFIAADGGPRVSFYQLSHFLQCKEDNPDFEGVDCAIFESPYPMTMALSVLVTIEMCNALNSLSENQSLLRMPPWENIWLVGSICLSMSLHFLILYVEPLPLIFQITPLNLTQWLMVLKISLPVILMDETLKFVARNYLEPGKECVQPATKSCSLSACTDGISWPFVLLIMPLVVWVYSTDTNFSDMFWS
UniProt A0A3L7HBS5: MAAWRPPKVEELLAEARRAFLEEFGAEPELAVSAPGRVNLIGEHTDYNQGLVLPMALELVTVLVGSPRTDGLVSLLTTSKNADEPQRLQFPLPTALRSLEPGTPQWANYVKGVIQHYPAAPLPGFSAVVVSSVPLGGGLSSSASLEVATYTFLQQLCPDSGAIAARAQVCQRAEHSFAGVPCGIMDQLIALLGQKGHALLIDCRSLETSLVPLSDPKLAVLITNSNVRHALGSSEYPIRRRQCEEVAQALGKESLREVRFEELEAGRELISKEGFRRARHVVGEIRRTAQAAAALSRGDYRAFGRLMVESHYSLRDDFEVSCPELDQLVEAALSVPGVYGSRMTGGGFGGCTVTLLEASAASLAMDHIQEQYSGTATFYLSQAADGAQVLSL
UniProt A0A3L7HJ29: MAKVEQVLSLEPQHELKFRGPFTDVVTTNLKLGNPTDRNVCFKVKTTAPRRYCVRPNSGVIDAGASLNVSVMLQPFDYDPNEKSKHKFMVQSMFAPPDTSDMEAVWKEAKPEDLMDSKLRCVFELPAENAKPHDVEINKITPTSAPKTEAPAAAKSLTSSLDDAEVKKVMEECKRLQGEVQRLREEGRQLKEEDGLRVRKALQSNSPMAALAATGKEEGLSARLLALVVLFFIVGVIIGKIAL
UniProt G3H3P1: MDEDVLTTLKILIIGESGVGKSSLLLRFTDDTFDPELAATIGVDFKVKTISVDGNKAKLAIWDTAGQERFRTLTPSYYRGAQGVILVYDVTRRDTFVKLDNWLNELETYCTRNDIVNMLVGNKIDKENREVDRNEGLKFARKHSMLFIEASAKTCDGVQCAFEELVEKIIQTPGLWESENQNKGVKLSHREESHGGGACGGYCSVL
UniProt Q3HR13: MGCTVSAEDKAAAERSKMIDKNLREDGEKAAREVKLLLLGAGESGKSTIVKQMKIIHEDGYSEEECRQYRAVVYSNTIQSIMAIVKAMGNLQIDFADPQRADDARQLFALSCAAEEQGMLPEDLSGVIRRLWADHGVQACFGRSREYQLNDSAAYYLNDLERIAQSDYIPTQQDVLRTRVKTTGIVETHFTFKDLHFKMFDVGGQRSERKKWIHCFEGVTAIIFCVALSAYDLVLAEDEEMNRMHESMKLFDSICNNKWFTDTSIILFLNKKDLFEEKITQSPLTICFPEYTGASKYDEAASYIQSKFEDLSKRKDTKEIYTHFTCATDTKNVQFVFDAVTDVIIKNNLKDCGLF
UniProt A0A3L7H5N7: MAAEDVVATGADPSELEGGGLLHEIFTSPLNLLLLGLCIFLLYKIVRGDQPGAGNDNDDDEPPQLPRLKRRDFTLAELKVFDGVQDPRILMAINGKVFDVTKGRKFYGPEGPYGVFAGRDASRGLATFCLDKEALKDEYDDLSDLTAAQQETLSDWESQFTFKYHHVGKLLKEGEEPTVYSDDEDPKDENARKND
UniProt A0A8C2MRH7: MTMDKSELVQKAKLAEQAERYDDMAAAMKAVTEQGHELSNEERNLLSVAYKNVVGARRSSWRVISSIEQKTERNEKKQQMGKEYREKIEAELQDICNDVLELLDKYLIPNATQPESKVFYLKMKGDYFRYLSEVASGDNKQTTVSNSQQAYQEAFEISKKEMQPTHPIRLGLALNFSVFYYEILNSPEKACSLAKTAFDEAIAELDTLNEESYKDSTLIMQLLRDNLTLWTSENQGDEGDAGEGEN
UniProt A0A8C2M4T3: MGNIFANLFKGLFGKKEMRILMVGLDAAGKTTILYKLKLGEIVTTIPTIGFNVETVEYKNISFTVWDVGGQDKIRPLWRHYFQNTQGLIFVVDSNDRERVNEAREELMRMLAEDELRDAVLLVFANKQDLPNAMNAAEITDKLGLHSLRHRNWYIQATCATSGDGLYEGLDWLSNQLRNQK
UniProt P49020, residues 16-196: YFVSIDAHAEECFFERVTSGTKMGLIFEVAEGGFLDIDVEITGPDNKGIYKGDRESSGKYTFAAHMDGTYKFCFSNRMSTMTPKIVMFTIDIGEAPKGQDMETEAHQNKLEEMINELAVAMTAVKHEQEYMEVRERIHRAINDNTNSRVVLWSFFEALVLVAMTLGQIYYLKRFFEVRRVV
UniProt A0A8C2ME99: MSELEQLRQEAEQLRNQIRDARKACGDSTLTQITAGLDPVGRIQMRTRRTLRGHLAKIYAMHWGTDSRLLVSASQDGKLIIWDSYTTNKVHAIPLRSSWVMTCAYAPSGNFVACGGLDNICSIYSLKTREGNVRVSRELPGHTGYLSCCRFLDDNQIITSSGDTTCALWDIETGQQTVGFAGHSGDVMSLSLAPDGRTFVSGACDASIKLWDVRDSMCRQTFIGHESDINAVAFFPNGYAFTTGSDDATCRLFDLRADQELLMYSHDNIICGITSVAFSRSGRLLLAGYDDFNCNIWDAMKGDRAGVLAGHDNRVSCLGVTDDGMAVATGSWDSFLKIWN
UniProt A0A8C2M508: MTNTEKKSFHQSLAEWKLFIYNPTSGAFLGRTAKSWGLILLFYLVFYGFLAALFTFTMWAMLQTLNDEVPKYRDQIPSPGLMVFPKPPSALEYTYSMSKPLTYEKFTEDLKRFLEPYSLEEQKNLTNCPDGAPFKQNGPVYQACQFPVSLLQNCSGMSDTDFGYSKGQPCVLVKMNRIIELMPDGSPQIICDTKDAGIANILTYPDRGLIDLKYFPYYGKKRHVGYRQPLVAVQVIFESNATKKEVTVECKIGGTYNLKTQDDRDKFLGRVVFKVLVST
UniProt P35950, residues 22-862: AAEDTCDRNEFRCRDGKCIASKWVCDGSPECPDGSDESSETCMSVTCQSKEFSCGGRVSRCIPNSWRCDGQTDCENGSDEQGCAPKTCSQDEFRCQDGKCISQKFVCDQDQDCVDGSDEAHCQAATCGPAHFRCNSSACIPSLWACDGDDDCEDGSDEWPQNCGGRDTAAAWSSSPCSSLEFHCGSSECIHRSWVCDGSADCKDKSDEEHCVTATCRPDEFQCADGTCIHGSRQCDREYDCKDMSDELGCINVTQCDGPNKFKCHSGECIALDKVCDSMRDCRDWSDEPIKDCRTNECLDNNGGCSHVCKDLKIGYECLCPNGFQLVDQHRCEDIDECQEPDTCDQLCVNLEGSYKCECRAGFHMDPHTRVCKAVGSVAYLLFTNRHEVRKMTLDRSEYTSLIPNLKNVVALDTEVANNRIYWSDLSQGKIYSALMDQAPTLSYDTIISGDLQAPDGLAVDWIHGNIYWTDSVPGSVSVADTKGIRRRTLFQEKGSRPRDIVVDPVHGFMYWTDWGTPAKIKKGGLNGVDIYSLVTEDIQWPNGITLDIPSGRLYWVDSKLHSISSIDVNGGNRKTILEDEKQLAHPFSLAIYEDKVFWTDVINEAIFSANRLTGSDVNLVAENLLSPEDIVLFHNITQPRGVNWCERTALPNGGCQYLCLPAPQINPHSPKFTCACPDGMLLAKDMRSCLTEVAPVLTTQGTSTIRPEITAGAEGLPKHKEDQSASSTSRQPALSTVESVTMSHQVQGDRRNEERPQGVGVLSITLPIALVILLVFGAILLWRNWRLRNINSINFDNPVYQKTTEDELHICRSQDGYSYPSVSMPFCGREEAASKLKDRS
UniProt Q07891: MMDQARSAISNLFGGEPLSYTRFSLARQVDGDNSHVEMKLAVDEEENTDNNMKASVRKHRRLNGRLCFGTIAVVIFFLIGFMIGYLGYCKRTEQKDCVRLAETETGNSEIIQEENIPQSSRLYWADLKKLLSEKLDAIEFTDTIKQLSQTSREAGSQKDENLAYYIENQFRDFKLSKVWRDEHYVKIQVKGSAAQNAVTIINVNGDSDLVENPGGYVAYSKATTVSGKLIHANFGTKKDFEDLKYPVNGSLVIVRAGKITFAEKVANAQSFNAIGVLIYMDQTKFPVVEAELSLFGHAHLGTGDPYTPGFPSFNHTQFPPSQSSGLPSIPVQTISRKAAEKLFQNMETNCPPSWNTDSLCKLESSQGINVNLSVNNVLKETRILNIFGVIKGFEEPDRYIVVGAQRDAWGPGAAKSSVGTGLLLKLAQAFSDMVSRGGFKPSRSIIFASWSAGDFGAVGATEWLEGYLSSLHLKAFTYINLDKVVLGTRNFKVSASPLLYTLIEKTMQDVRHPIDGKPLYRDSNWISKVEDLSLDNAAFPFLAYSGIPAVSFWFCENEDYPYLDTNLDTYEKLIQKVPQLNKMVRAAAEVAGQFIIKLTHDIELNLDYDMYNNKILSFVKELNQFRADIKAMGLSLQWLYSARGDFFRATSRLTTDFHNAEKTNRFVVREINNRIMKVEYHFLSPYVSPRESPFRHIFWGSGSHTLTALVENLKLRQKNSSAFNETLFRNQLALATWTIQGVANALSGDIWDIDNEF
UniProt G3HC29: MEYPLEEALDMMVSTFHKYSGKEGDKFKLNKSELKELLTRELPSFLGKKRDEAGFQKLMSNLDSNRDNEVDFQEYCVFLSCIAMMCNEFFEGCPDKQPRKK
UniProt A0A061IL97: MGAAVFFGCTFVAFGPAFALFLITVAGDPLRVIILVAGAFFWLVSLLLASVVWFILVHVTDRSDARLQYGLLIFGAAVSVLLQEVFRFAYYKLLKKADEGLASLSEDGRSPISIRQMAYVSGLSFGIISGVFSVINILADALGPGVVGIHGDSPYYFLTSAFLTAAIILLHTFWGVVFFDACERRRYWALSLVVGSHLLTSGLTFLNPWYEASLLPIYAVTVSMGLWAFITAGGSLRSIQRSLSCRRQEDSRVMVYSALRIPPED

target: human glucagon receptor (GCGR), C-terminal Flag-tagged (human) (UniProt P47871); assay: affinity purification with mass spectrometry; anti-Flag M2 affinity gel on lysates of CHO cells transfected with GCGR-Flag, with or without glucagon (10 nM, 5 minutes); lysis buffer 10% glycerol, 50 mM HEPES pH 7.4, 150 mM NaCl, 2 mM EDTA, 0.25% DDM; elution with ammonium hydroxide pH 11.0, trypsin, LC-MS/MS; three repeats; control cells without GCGR-Flag

| Substance | binding |
| --- | --- |
| NDRG1 (from UniProt A0A8C2LCH3 1-394) | binds |
| ATP2A2 (from UniProt A0A8C2LKN4 1-1042) | binds |
| GALK1 (from UniProt A0A3L7HBS5 1-392) | binds |
| VAPB (from UniProt A0A3L7HJ29 1-243) | binds |
| RAB18 (from UniProt G3H3P1 1-206) | binds |
| GNAi2 (from UniProt Q3HR13 1-355) | binds |
| PGRMC1 (from UniProt A0A3L7H5N7 1-195) | binds |

Second part, the substance after the results:

| binding | Substance |
| --- | --- |
| binds | 14-3-3 protein beta, also known as tyrosine 3-monooxygenase/tryptophan 5-monooxygenase activation protein, beta (YWHAB) (from UniProt A0A8C2MRH7 1-246) |
| binds | ADP-ribosylation factor 1 (ARF1) (from UniProt A0A8C2M4T3 1-181) |
| binds | TMED2 (from UniProt P49020 16-196) |
| binds | GNB2 (from UniProt A0A8C2ME99 1-340) |
| binds | ATP1B3 (from UniProt A0A8C2M508 1-279) |
| binds | LDLR (from UniProt P35950 22-862) (receptor) |
| binds | TFR1 (from UniProt Q07891 1-757) (receptor) |
| binds | S100A4 (from UniProt G3HC29 1-101) |
| binds | APH1A (from UniProt A0A061IL97 1-265) |
